Measurements: patent US20130096104A1, “IMIDAZOPYRIDINE COMPOUNDS, COMPOSITIONS AND METHODS OF USE” (GENENTECH, INC., priority 2010, published 2013)
Some results were stated once for a whole list of compounds, not compound by compound.

Target: T1, TYK2 kinase domain (Homo sapiens, UniProt P29597)
T1 construct: The activity of the isolated JAK1, JAK2 or TYK2 kinase domain was measured
T1 sequence (P29597 897-1176 limits assumed): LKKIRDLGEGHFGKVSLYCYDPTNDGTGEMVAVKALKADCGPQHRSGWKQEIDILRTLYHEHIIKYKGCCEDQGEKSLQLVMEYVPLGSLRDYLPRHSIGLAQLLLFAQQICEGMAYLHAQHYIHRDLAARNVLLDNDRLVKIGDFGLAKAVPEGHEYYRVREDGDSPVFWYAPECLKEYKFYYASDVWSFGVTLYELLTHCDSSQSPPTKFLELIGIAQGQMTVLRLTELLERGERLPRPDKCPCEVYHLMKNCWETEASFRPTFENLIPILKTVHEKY
Test: TYK2 inhibition assay (Example A, Caliper LabChip peptide phosphorylation)
Type: biochemical
Conditions: tested in the above assays; less than about
Procedure: The activity of the isolated JAK1, JAK2 or TYK2 kinase domain was measured by monitoring phosphorylation of a peptide derived from JAK3 ([…] fluorescently labeled on the N-terminus with 5-carboxyfluorescein using the Caliper LabChip technology (Caliper Life Sciences, Hopkinton, Mass.). […] Reactions were incubated at 22° C. in 384-well polypropylene microtiter plates for 30 minutes and then stopped by addition of 25 uL of an EDTA containing solution (100 mM Hepes pH 7.2, 0.015% Brij-35, 150 mM EDTA), resulting in a final EDTA concentration of 50 mM. After termination of the kinase reaction, the proportion of phosphorylated product was determined as a fraction of total peptide substrate using the Caliper LabChip 3000 according to the manufacturer's specifications. Ki values were then determined using the Morrison tight binding model. Morrison, J. F., Biochim. Biophys. Acta. 185:269-296 (1969); William, J. W. and Morrison, J. F., Meth. Enzymol., 63:437-467 (1979).

Row | SMILES | IC50 [µM]
1 | N#Cc1cc(Cl)c(-c2nc3ccnc(Nc4cc(C#N)ncn4)c3[nH]2)c(Cl)c1 [Example 230, 6-(2-(2,6-dichloro-4-cyanophenyl)-3H-imidazo[4,5-c]pyridin-4-ylamino)pyrimidine-4-carbonitrile] | < 5
2 | Cc1cnc(Nc2nccc3nc(-c4c(Cl)cc(C#N)cc4Cl)[nH]c23)cn1 [Example 231, 3,5-dichloro-4-(4-(5-methylpyrazin-2-ylamino)-3H-imidazo[4,5-c]pyridin-2-yl)benzonitrile] | < 5
3 | N#Cc1cc(Cl)c(-c2nc3ccnc(Nc4ccc(CO)cn4)c3[nH]2)c(Cl)c1 [Example 232, 3,5-dichloro-4-(4-(5-(hydroxymethyl)pyridin-2-ylamino)-3H-imidazo[4,5-c]pyridin-2-yl)benzonitrile] | < 5
4 | Cc1nc(Nc2nccc3nc(-c4c(F)cccc4Cl)[nH]c23)cc(N2CCC2)n1 [Example 233, N-(6-(azetidin-1-yl)-2-methylpyrimidin-4-yl)-2-(2-chloro-6-fluorophenyl)-3H-imidazo[4,5-c]pyridin-4-amine] | < 5
5 | OCc1cc(Nc2nccc3nc(-c4c(Cl)cccc4Cl)[nH]c23)ncn1 [Example 234, (6-(2-(2,6-dichlorophenyl)-3H-imidazo[4,5-c]pyridin-4-ylamino)pyrimidin-4-yl)methanol] | < 5
6 | N#Cc1cc(Nc2nccc3nc(-c4c(Cl)cccc4Cl)[nH]c23)ncn1 [Example 235, 6-(2-(2,6-dichlorophenyl)-3H-imidazo[4,5-c]pyridin-4-ylamino)pyrimidine-4-carbonitrile] | < 5
7 | FC(F)(F)c1cc(Nc2nccc3nc(-c4c(Cl)cccc4Cl)[nH]c23)ncn1 [Example 236, 2-(2,6-dichlorophenyl)-N-(6-(trifluoromethyl)-pyrimidin-4-yl)-3H-imidazo[4,5-c]pyridin-4-amine] | < 5
8 | CN(C)c1cnc(Nc2nccc3nc(-c4c(Cl)cccc4Cl)[nH]c23)cn1 [Example 237, N2-(2-(2,6-dichlorophenyl)-3H-imidazo[4,5-c]pyridin-4-yl)-N5,N5-dimethylpyrazine-2,5-diamine] | < 5
9 | OCc1cnc(Nc2nccc3nc(-c4c(Cl)cccc4Cl)[nH]c23)cn1 [Example 238, (5-(2-(2,6-dichlorophenyl)-3H-imidazo[4,5-c]pyridin-4-ylamino)pyrazin-2-yl)methanol] | < 5
10 | OCc1cc(Nc2nccc3nc(-c4c(F)cccc4Cl)[nH]c23)ncn1 [Example 239, (6-(2-(2-chloro-6-fluorophenyl)-3H-imidazo[4,5-c]pyridin-4-ylamino)pyrimidin-4-yl)methanol] | < 5
11 | N#Cc1cc(Nc2nccc3nc(-c4c(F)cccc4Cl)[nH]c23)ncn1 [Example 240, 6-(2-(2-chloro-6-fluorophenyl)-3H-imidazo[4,5-c]pyridin-4-ylamino)pyrimidine-4-carbonitrile] | < 5
12 | Fc1cccc(Cl)c1-c1nc2ccnc(Nc3cc(C(F)(F)F)ncn3)c2[nH]1 [Example 241, 2-(2-chloro-6-fluorophenyl)-N-(6-(trifluoromethyl)-pyrimidin-4-yl)-3H-imidazo[4,5-c]pyridin-4-amine] | < 5
13 | OCCN1CCN(c2cnc(Nc3nccc4nc(-c5c(F)cccc5Cl)[nH]c34)cn2)CC1 [Example 242, 2-(4-(5-(2-(2-chloro-6-fluorophenyl)-3H-imidazo[4,5-c]pyridin-4-ylamino)pyrazin-2-yl)piperazin-1-yl)ethanol] | < 5
14 | CN(C)c1cnc(Nc2nccc3nc(-c4c(F)cccc4Cl)[nH]c23)cn1 [Example 243, N2-(2-(2-chloro-6-fluorophenyl)-3H-imidazo[4,5-c]pyridin-4-yl)-N5,N5-dimethylpyrazine-2,5-diamine] | < 5
15 | Clc1cccc(Cl)c1-c1nc2ccnc(Nc3cncnc3)c2[nH]1 [Example 244, 2-(2,6-dichlorophenyl)-N-(pyrimidin-5-yl)-3H-imidazo[4,5-c]pyridin-4-amine] | < 5
16 | CN(C)c1nccc(Nc2nccc3nc(-c4ccccc4Cl)[nH]c23)n1 [Example 245, N4-(2-(2-chlorophenyl)-3H-imidazo[4,5-c]pyridin-4-yl)-N2,N2-dimethylpyrimidine-2,4-diamine] | < 5
17 | Clc1ccccc1-c1nc2ccnc(Nc3ccnc(N4CCOCC4)n3)c2[nH]1 [Example 246, 2-(2-chlorophenyl)-N-(2-morpholino-pyrimidin-4-yl)-3H-imidazo[4,5-c]pyridin-4-amine] | < 5

Row | SMILES | IC50 [µM]
18 | N#Cc1cc(Cl)c(-c2nc3ccnc(Nc4cc(CO)ccn4)c3[nH]2)c(Cl)c1 [Example 247] | < 5
19 | Cc1nc(Nc2nccc3nc(-c4c(F)cccc4Cl)[nH]c23)cc(N2CC(O)C2)n1 [Example 248] | < 5
20 | N#Cc1cc(Cl)c(-c2nc3ccnc(Nc4cc(N5CCC(O)C5)ncn4)c3[nH]2)c(Cl)c1 (stereo not shown) [Example 249, 3,5-dichloro-4-(4-(6-(3-hydroxypyrrolidin-1-yl)pyrimidin-4-ylamino)-3H-imidazo[4,5-c]pyridin-2-yl)benzonitrile] | < 5
21 | N#Cc1cc(Cl)c(-c2nc3ccnc(Nc4cc(N5CCS(=O)(=O)CC5)ncn4)c3[nH]2)c(Cl)c1 [Example 250, 3,5-dichloro-4-(4-(6-thiomorpholino-sulfonylpyrimidin-4-ylamino)-3H-imidazo[4,5-c]pyridin-2-yl)benzonitrile] | < 5
22 | Cc1nc(Nc2nccc3nc(-c4c(Cl)cc(C#N)cc4Cl)[nH]c23)cc(N2CCOCC2)n1 [Example 251, 3,5-dichloro-4-(4-(2-methyl-6-morpholino-pyrimidin-4-ylamino)-3H-imidazo[4,5-c]pyridin-2-yl)benzonitrile] | < 5
23 | Clc1cccc(Cl)c1-c1nc2ccnc(Nc3cc(N4CCC4)ncn3)c2[nH]1 [Example 252, N-(6-(azetidin-1-yl)pyrimidin-4-yl)-2-(2,6-dichlorophenyl)-3H-imidazo[4,5-c]pyridin-4-amine] | < 5
24 | OC1CN(c2cc(Nc3nccc4nc(-c5c(Cl)cccc5Cl)[nH]c34)ncn2)C1 [Example 253, 1-(6-(2-(2,6-dichlorophenyl)-3H-imidazo[4,5-c]pyridin-4-ylamino)pyrimidin-4-yl)azetidin-3-ol] | < 5
25 | OCC(O)c1cc(Nc2nccc3nc(-c4c(Cl)cccc4Cl)[nH]c23)ncn1 (stereo not shown) [Example 254, 1-(6-(2-(2,6-dichlorophenyl)-3H-imidazo[4,5-c]pyridin-4-ylamino)pyrimidin-4-yl)ethane-1,2-diol] | < 5
26 | Fc1cccc(Cl)c1-c1nc2ccnc(Nc3cc(N4CCC4)ncn3)c2[nH]1 [Example 255, N-(6-(azetidin-1-yl)pyrimidin-4-yl)-2-(2-chloro-6-fluorophenyl)-3H-imidazo[4,5-c]pyridin-4-amine] | < 5
27 | OC1CN(c2cc(Nc3nccc4nc(-c5c(F)cccc5Cl)[nH]c34)ncn2)C1 [Example 256, 1-(6-(2-(2-chloro-6-fluorophenyl)-3H-imidazo[4,5-c]pyridin-4-ylamino)pyrimidin-4-yl)azetidin-3-ol] | < 5
28 | O=S1(=O)CCN(c2cc(Nc3nccc4nc(-c5c(F)cccc5Cl)[nH]c34)ncn2)CC1 [Example 257, 2-(2-chloro-6-fluorophenyl)-N-(6-thiomorpholino-sulfonylpyrimidin-4-yl)-3H-imidazo[4,5-c]pyridin-4-amine] | < 5
29 | OCC(O)c1cc(Nc2nccc3nc(-c4c(F)cccc4Cl)[nH]c23)ncn1 (stereo not shown) [Example 258, 1-(6-(2-(2-chloro-6-fluorophenyl)-3H-imidazo[4,5-c]pyridin-4-ylamino)pyrimidin-4-yl)ethane-1,2-diol] | < 5
30 | Cc1nc(Nc2nccc3nc(-c4c(Cl)cccc4Cl)[nH]c23)cc(N2CC(O)C2)n1 [Example 259, 1-(6-(2-(2,6-dichlorophenyl)-3H-imidazo[4,5-c]pyridin-4-ylamino)-2-methylpyrimidin-4-yl)azetidin-3-ol] | < 5
31 | Cc1cc(Nc2nccc3nc(-c4ccccc4Cl)[nH]c23)nc(N(C)C)n1 [Example 260, N-4-(2-(2-chlorophenyl)-3H-imidazo[4,5-c]pyridin-4-yl)-N2,N2,6-trimethylpyrimidine-2,4-diamine] | < 5
32 | O[C@@H]1CCN(c2cc(Nc3nccc4nc(-c5c(Cl)cccc5Cl)[nH]c34)ncn2)C1 [Example 261, (R)-1-(6-(2-(2,6-dichlorophenyl)-3H-imidazo[4,5-c]pyridin-4-ylamino)pyrimidin-4-yl)pyrrolidin-3-ol] | < 5
33 | O[C@H]1CCN(c2cc(Nc3nccc4nc(-c5c(Cl)cccc5Cl)[nH]c34)ncn2)C1 [Example 262, (S)-1-(6-(2-(2,6-dichlorophenyl)-3H-imidazo[4,5-c]pyridin-4-ylamino)pyrimidin-4-yl)pyrrolidin-3-ol] | < 5
34 | O[C@@H]1CCN(c2cc(Nc3nccc4nc(-c5c(F)cccc5Cl)[nH]c34)ncn2)C1 [Example 263, (R)-1-(6-(2-(2-chloro-6-fluorophenyl)-3H-imidazo[4,5-c]pyridin-4-ylamino)pyrimidin-4-yl)pyrrolidin-3-ol] | < 5
